Test results: patent publication US20260001922A1, “PEPTIDES TARGETING SODIUM CHANNELS TO TREAT PAIN” (priority 2022, published 2026)
Where “and” joins values, the source holds several entries; their conditions need not be identical. Equal entries are not always repeated. Entries after “also recorded” stand apart in the source; their conditions may differ. Where two headings read alike, the source gives them in different places. Not every detail of the peptide structures is certain; ends, links or a residue may be inferred. For some of these results: At least one compound was matched to its structure with a doubt left. Some of these results come from one statement about several compounds together. Positions of bridges follow the written chain, without caps; N, C: chain ends. Residues, ends and D or L forms follow the SMILES beside them.

The chains behind the UniProt entries cited, without tags or fusion partners.
UniProt Q15858, whole entry: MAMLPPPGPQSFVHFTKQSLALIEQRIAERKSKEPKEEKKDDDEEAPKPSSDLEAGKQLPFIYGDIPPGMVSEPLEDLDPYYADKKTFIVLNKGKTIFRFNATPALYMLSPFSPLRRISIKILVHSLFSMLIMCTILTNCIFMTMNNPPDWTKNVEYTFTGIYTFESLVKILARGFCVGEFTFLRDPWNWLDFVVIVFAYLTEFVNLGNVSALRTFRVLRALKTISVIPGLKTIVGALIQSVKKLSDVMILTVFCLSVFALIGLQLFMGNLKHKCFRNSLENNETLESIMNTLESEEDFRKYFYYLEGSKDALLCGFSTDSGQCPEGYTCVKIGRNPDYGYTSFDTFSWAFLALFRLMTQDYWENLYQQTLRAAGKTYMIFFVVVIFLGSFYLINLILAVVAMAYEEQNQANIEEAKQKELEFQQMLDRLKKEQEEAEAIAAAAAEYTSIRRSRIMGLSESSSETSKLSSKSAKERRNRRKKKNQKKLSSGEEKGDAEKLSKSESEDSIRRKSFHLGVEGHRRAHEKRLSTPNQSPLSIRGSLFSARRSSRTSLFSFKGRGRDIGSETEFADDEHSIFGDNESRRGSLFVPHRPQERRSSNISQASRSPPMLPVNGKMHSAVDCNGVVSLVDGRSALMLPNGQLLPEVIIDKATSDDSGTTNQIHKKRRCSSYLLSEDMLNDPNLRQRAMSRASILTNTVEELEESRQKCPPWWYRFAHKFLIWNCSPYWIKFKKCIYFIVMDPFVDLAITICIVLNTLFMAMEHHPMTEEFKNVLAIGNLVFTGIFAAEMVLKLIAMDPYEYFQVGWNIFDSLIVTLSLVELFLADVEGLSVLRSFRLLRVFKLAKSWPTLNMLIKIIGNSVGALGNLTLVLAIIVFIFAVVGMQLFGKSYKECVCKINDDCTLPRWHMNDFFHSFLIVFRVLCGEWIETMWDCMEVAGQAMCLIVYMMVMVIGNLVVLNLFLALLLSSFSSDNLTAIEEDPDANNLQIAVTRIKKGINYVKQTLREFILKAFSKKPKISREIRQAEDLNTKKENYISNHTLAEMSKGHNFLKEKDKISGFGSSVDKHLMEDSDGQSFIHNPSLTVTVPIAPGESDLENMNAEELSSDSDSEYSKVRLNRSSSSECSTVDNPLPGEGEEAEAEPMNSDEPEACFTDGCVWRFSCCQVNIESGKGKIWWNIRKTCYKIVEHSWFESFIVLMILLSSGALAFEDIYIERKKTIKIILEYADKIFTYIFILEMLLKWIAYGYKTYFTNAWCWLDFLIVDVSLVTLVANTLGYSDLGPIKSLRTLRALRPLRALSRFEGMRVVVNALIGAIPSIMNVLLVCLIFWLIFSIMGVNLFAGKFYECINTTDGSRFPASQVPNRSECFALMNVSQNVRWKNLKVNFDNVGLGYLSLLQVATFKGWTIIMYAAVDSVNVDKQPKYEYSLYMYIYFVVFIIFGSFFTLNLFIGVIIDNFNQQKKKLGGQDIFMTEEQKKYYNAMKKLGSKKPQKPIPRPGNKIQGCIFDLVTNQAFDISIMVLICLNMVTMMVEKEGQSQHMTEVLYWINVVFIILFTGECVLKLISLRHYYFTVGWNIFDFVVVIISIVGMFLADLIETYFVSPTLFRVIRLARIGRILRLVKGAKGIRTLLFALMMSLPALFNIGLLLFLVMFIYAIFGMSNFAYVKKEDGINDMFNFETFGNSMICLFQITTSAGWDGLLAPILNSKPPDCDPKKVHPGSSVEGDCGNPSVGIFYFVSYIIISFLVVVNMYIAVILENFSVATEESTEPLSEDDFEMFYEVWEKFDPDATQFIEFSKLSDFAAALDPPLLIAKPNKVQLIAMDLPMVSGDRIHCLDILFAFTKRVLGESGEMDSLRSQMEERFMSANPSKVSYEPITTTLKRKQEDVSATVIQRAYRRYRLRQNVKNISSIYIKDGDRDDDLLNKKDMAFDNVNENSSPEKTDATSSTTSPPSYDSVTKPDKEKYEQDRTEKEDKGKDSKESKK
UniProt Q9Y5Y9, whole entry: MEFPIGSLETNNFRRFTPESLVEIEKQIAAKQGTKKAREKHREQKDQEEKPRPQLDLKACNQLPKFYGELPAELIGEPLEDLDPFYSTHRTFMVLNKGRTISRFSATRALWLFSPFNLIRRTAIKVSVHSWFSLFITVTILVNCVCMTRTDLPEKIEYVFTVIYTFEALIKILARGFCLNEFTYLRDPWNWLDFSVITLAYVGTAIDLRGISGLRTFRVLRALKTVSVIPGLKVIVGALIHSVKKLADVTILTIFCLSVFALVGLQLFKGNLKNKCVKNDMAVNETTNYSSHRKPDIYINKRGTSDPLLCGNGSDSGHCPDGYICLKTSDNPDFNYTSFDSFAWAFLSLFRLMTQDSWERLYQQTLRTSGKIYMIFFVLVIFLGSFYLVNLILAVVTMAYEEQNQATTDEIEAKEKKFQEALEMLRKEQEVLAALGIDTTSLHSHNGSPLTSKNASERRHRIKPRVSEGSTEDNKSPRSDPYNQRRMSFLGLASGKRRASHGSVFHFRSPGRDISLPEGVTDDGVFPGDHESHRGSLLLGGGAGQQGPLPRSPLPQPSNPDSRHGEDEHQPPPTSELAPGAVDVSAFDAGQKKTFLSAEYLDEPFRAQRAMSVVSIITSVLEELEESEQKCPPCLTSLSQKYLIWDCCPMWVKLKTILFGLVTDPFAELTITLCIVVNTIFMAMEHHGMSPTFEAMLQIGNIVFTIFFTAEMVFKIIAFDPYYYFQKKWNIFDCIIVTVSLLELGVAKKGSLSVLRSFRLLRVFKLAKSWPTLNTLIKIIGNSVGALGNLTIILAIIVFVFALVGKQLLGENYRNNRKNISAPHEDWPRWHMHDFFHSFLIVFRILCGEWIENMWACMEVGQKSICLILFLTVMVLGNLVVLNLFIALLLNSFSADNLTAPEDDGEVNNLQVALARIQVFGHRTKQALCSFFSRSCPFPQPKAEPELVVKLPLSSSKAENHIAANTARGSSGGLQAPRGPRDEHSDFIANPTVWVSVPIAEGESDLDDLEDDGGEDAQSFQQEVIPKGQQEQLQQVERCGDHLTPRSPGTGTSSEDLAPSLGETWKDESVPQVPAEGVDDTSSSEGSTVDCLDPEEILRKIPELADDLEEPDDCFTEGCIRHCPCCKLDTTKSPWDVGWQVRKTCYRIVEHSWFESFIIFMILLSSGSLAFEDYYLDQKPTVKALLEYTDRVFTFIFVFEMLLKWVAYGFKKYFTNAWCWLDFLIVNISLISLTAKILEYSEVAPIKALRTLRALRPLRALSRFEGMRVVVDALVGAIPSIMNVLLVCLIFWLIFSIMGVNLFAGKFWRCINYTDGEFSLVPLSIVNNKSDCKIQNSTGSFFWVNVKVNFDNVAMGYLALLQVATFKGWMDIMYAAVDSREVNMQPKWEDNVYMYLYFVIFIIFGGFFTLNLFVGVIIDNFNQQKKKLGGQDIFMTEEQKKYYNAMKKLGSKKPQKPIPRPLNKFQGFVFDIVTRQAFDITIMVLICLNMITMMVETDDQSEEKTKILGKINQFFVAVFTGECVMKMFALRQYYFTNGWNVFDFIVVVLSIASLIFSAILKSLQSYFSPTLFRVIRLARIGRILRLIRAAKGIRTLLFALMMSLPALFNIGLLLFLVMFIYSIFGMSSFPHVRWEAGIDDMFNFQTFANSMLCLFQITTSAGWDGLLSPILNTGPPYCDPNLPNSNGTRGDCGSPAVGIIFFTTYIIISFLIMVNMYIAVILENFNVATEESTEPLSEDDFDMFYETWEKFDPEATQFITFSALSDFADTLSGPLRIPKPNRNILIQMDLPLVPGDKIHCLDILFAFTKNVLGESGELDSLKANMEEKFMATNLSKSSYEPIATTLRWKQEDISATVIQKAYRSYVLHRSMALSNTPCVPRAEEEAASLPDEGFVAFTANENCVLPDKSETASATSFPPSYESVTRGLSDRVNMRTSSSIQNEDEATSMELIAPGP

Legend:
[1] = molecular target: human Nav1.7 (Homo sapiens, UniProt Q15858); type: cell-based; conditions: whole-cell voltage clamp, HEK 293 cells; read-out: hNav1.7 IC50
Description: HEK-293 cells stably expressing human Nav1.1, Nav1.4, Nav1.5, Nav1.6 and Nav1.7 were obtained from Dr. Chris Lossin. Rat Nav1.3 expressing HEK-293 cells were from Dr. Steven Waxman (Yale University, New Haven, CT). These cell lines were cultured in complete DMEM supplemented with 10% FBS, 1% penicillin/streptomycin, and G418. The human Nav1.8 channel (co-expressing with human Navβ1 and Navβ2 subunits) and the Nav1.9 channel (co-expressing with human Trkb, Navβ1, and Navβ2 subunits) were obtained from Icagen (Durham, NC). hNav1.8 cells cultured with G418 (0.4 mg/mL) and puromycin ([…]/mL) and hNav1.9 cells were cultured with G418 (0.4 mg/mL), puromycin ([…]), and zeocin (0.05 mg/mL). Human Nav1.2 were expressed transiently by transfection of the hNav1.2 cDNA (from Dr. Alan L. Goldin, UC Irvine, CA) into HEK-293 cells.
Whole-cell patch-clamp experiments on recombinant channels were conducted manually at room temperature (22-24° C.) using an EPC-10 amplifier (HEKA Electronik, Lambrecht/Pfalz, Germany). Cells were trypsinized and plated onto poly-1-lysine-coated coverslips. All recordings were done in normal Ringer external bath solution containing (in mM) 160 NaCl, 4.5 KCl, 2 CaCl2), 1 MgCl2, 10 HEPES (pH 7.4 and 305 mOsm) as. Patch pipettes were pulled from soda lime glass (micro-hematocrit tubes, Kimble Chase, Rochester, NY) and had resistances of 2-3 MQ when filled with CsF-based internal solution containing (in mM) 10 NaF, 110 CsF, 20 CsCl, 10 HEPES, 2 EGTA, (pH 7.4, 310 mOsm). Data acquisition and analysis were performed with Pulse-PulseFit (HEKA Electronik GmbH, Germany), IgorPro (WaveMetrics, Portland, OR), and Origin 9.0 software (OriginLab Corporation, Northampton, MA). Cells were held at −90 mV and voltage stepped to −120 mV for 200 ms before depolarizing to −10 mV for 50 msec to elicit inward currents. Control test currents were monitored for 5-10 min to ensure that the amplitude and kinetics of the response were stable. […]

[2] = system: thermal nociception in naïve rats
[3] = Stability in artificial cerebrospinal fluid; type: in vitro ADME; conditions: 37° C.
[4] = system: oxaliplatin chemotherapy induced neuropathic pain in rats; assay: Hotplate assay in rats with oxaliplatin induced neuropathy (CIPN); type: in vivo, rat; conditions: 1.6 μg i.t.
[5] = system: Nav channels of mouse nonpeptidergic nociceptor neurons; type: cell-based; conditions: 1 μM, 0.4-1 ms into a 0 mV step
[6] = system: MrgprD-GFP mouse DRG neurons; type: cell-based; conditions: 1 μM
[7] = system: human DRG neurons; assay: Current clamp of human DRG neurons after 24 h oxaliplatin; type: cell-based
[8] = molecular target: human Nav1.8 channel (Homo sapiens, UniProt Q9Y5Y9); type: cell-based; conditions: read-out: hNav1.8 IC50

CC(C)C[C@@H]1NC(=O)CNC(=O)[C@H](CCC(=O)O)NC(=O)[C@@H]2CSSC[C@H](NC(=O)[C@@H](N)Cc3ccc(O)cc3)C(=O)N[C@@H](CCC(N)=O)C(=O)N[C@@H](CCCCN)C(=O)N[C@@H](C)C(=O)N[C@@H](Cc3ccccc3)C(=O)N[C@@H](Cc3c[nH]c4ccccc34)C(=O)N[C@@H]([C@@H](C)O)C(=O)N[C@H]3CSSC[C@H](NC(=O)[C@H](CCCNC(=N)N)NC1=O)C(=O)N[C@@H](CCNC(=N)N)C(=O)N[C@@H](CC(C)C)C(=O)N[C@@H](Cc1c[nH]c4ccccc14)C(=O)N[C@H](C(=O)N[C@@H](CCCCN)C(=O)N[C@@H](CCCCN)C(=O)N[C@@H](CCC(=O)O)C(=O)N[C@@H](CC(C)C)C(=O)N[C@@H](Cc1c[nH]c4ccccc14)C(N)=O)CSSC[C@H](NC(=O)[C@H](CCCCN)NC(=O)[C@H](CCCNC(=N)N)NC(=O)[C@H](CCC(=O)O)NC(=O)[C@H](CO)NC(=O)[C@H](CC(=O)O)NC3=O)C(=O)N2 [PTx2-2954]
IC50 [1]: > 5 µM

CSCC[C@@H]1NC(=O)[C@H](Cc2c[nH]c3ccccc23)NC(=O)[C@H](CCCCN)NC(=O)[C@H](CCC(N)=O)NC(=O)[C@@H](NC(=O)[C@@H](N)Cc2ccc(O)cc2)CSSC[C@@H]2NC(=O)[C@@H]3CSSC[C@@H](C(=O)N[C@@H](CCCNC(=N)N)C(=O)N[C@@H](CCCCN)C(=O)N[C@@H](CCC(=O)O)C(=O)N[C@@H](CC(C)C)C(=O)N[C@@H](Cc4c[nH]c5ccccc45)C(N)=O)NC(=O)[C@H](Cc4c[nH]c5ccccc45)NC(=O)[C@H](CC(C)C)NC(=O)[C@H](CCCNC(=N)N)NC(=O)[C@H](CSSC[C@H](NC(=O)[C@H]([C@@H](C)O)NC(=O)[C@H](CCC(N)=O)NC1=O)C(=O)N[C@@H](CC(=O)O)C(=O)N[C@@H](CO)C(=O)N[C@@H](C)C(=O)N[C@@H](CCCNC(=N)N)C(=O)N[C@@H](CCCCN)C(=O)N3)NC(=O)[C@H](CCCNC(=N)N)NC(=O)[C@H](CC(C)C)NC(=O)CNC(=O)[C@H](CCC(=O)O)NC2=O [PTx2-3065] (H-YCQKWMQTCDSARKCCEGLRCRLWCRKELW-NH2; disulfide 2-16, 9-21, 15-25)
IC50 [1]: 0.0739 µM

CSCC[C@@H]1NC(=O)[C@H](Cc2c[nH]c3ccccc23)NC(=O)[C@H](CCCCN)NC(=O)[C@H](CCC(N)=O)NC(=O)[C@@H](NC(=O)[C@@H](N)CCC(N)=O)CSSC[C@@H]2NC(=O)[C@@H]3CSSC[C@@H](C(=O)N[C@@H](CCCNC(=N)N)C(=O)N[C@@H](CCCCN)C(=O)N[C@@H](CCC(=O)O)C(=O)N[C@@H](CC(C)C)C(=O)N[C@@H](CC(C)C)C(N)=O)NC(=O)[C@H](Cc4c[nH]c5ccccc45)NC(=O)[C@H](CC(C)C)NC(=O)[C@H](CCCNC(=N)N)NC(=O)[C@H](CSSC[C@H](NC(=O)[C@H]([C@@H](C)O)NC(=O)[C@H](CCC(N)=O)NC1=O)C(=O)N[C@@H](CC(=O)O)C(=O)N[C@@H](CCCCN)C(=O)N[C@@H](CC(=O)O)C(=O)N[C@@H](CCCNC(=N)N)C(=O)N[C@@H](CCCCN)C(=O)N3)NC(=O)[C@H](CCCNC(=N)N)NC(=O)[C@H](Cc1ccccc1)NC(=O)CNC(=O)[C@H](CCC(=O)O)NC2=O [PTx2-3127] (H-QCQKWMQTCDKDRKCCEGFRCRLWCRKELL-NH2; disulfide 2-16, 9-21, 15-25)
analgesia on 52.1° C. hotplate ([2]; 1.2 ug i.t. to 1.6 ug i.t.): dose dependent analgesia
analgesia on 52.1° C. hotplate ([2]; 1.6 μg i.t.): robust analgesia
time stable in artificial CSF [3]: more than 50 hours
analgesia on 52.1° C. hotplate [4]: robust analgesia; also recorded: effective
inward current inhibited (current density, mean SEM) [5]: 48±17 pA/pF
Rheobase [6]: increased
action potentials in TTX-sensitive neurons ([6]; 20 ms current injections at 150% of rheobase at 1, 3, and 10 Hz): blocked
number of remaining action potentials ([7]; 0.01, 0.1, and 1 μM, 0.1, 1, 3, 10 Hz, after 24 h oxaliplatin): reduced in a dose-dependent manner
Rheobase ([7]; after 24 h oxaliplatin 50 μM): increase with increasing concentrations

CSCC[C@@H]1NC(=O)[C@H](Cc2c[nH]c3ccccc23)NC(=O)[C@H](CCCCN)NC(=O)[C@H](CCC(N)=O)NC(=O)[C@@H](NC(=O)[C@@H](N)CCC(N)=O)CSSC[C@@H]2NC(=O)[C@@H]3CSSC[C@@H](C(=O)N[C@@H](CCCNC(=N)N)C(=O)N[C@@H](CCCCN)C(=O)N[C@@H](CCC(=O)O)C(=O)N[C@@H](CC(C)C)C(=O)N[C@@H](CC(C)C)C(N)=O)NC(=O)[C@H](Cc4c[nH]c5ccccc45)NC(=O)[C@H](CC(C)C)NC(=O)[C@H](CCCNC(=N)N)NC(=O)[C@H](CSSC[C@H](NC(=O)[C@H]([C@@H](C)O)NC(=O)[C@H](CCC(N)=O)NC1=O)C(=O)N[C@@H](CC(=O)O)C(=O)N[C@@H](CCCCN)C(=O)N[C@@H](C)C(=O)N[C@@H](CCCNC(=N)N)C(=O)N[C@@H](CCCCN)C(=O)N3)NC(=O)[C@H](CCCNC(=N)N)NC(=O)[C@H](Cc1ccccc1)NC(=O)CNC(=O)[C@H](CCC(=O)O)NC2=O [PTx2-3128] (H-QCQKWMQTCDKARKCCEGFRCRLWCRKELL-NH2; disulfide 2-16, 9-21, 15-25)
IC50 [8]: > 10 µM

CSCC[C@@H]1NC(=O)[C@H](Cc2c[nH]c3ccccc23)NC(=O)[C@H](CCCCN)NC(=O)[C@H](CC(C)C)NC(=O)[C@@H](NC(=O)[C@@H](N)CCC(N)=O)CSSC[C@@H]2NC(=O)[C@@H]3CSSC[C@@H](C(=O)N[C@@H](CCCNC(=N)N)C(=O)N[C@@H](CCCCN)C(=O)N[C@@H](CCC(=O)O)C(=O)N[C@@H](CC(C)C)C(=O)N[C@@H](CC(C)C)C(N)=O)NC(=O)[C@H](Cc4c[nH]c5ccccc45)NC(=O)[C@H](CC(C)C)NC(=O)[C@H](CCCNC(=N)N)NC(=O)[C@H](CSSC[C@H](NC(=O)[C@H]([C@@H](C)O)NC(=O)[C@H](CCC(N)=O)NC1=O)C(=O)N[C@@H](CC(=O)O)C(=O)N[C@@H](CCCCN)C(=O)N[C@@H](CC(=O)O)C(=O)N[C@@H](CCCNC(=N)N)C(=O)N[C@@H](CCCCN)C(=O)N3)NC(=O)[C@H](CCCNC(=N)N)NC(=O)[C@H](Cc1ccccc1)NC(=O)CNC(=O)[C@H](CCC(=O)O)NC2=O [PTx2-3259] (H-QCLKWMQTCDKDRKCCEGFRCRLWCRKELL-NH2; disulfide 2-16, 9-21, 15-25)
IC50 [1]: 0.0418 µM and 0.04 µM
